Reference: the supplement of paper PMC6411743
± gives the standard deviation of the averaged measurements. Only a part is listed here, and it is no random draw.

The chains behind the UniProt entries cited, without tags or fusion partners. Where a name states a change or a piece, a line headed by the entry shows the natural chain unless it says otherwise.
UniProt P27144: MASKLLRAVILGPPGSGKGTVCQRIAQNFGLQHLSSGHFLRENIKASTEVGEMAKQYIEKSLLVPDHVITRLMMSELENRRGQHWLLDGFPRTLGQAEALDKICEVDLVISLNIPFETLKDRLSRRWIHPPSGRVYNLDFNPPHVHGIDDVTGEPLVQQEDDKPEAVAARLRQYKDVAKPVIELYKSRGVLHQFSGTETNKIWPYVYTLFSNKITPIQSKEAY
UniProt Q99439: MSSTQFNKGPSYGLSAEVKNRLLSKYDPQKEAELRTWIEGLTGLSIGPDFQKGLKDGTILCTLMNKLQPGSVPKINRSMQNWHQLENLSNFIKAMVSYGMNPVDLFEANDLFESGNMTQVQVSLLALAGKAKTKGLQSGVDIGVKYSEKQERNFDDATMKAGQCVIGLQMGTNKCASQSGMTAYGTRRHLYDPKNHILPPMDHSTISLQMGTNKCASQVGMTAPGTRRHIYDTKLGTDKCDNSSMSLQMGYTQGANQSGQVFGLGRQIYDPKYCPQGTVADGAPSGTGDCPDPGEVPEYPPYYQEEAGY
UniProt A6NFI3: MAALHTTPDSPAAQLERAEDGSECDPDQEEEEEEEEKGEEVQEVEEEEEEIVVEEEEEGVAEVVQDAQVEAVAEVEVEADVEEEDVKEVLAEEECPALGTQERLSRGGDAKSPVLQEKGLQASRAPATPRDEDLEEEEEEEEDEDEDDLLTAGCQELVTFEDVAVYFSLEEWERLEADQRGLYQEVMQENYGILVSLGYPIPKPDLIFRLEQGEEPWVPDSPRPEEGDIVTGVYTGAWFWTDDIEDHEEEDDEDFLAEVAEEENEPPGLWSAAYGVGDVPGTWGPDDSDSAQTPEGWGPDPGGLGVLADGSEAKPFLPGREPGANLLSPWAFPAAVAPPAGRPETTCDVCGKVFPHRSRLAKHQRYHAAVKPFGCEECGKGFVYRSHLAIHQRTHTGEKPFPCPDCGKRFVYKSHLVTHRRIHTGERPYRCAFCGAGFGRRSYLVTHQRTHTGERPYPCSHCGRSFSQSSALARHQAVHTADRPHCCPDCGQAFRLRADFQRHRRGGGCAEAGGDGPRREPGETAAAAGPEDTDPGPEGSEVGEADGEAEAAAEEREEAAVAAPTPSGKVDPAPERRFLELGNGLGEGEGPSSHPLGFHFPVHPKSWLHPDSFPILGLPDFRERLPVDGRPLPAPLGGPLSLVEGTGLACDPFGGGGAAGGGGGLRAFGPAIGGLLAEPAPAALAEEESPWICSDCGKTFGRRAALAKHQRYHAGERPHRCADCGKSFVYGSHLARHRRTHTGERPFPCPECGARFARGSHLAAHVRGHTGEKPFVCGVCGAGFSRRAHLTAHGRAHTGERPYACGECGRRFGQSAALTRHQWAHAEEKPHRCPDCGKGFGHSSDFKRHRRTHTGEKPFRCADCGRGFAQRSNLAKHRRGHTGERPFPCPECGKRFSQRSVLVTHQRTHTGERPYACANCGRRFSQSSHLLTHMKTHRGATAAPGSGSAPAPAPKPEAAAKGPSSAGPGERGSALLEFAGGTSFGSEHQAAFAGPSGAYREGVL
UniProt O00258: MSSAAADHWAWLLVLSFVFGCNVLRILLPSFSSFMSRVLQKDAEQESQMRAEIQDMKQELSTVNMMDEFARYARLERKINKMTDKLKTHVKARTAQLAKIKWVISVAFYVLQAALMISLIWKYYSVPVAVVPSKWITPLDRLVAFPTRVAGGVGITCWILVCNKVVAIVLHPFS
UniProt Q12905: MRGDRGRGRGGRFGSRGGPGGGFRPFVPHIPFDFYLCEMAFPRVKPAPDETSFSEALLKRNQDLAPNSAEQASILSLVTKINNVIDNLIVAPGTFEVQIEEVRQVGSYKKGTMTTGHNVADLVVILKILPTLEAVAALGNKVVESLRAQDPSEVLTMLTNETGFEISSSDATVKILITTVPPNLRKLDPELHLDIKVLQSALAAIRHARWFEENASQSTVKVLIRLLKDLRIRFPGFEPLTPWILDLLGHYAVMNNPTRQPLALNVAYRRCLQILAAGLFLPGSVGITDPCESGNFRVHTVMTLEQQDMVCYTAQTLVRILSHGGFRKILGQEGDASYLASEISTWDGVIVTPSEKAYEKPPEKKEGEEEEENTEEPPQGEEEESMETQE
UniProt Q8TD31: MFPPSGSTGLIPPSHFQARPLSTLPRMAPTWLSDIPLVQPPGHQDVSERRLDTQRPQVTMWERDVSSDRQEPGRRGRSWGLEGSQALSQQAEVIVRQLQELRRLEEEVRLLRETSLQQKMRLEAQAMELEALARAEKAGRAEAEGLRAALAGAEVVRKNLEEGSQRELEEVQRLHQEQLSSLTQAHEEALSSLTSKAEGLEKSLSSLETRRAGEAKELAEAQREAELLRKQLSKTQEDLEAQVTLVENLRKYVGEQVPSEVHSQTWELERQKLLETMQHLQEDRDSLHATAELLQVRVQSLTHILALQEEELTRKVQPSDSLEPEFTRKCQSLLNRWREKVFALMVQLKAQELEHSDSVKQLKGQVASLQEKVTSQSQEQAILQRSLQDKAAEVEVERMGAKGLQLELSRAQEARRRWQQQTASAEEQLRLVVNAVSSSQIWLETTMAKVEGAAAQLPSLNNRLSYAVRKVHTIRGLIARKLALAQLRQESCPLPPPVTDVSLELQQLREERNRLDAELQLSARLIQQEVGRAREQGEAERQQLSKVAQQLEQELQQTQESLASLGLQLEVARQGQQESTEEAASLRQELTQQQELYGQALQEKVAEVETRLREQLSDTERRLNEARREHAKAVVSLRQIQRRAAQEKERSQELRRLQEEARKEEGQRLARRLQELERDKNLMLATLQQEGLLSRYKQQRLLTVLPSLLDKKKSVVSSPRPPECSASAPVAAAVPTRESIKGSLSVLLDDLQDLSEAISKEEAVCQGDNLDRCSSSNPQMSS
UniProt O14727: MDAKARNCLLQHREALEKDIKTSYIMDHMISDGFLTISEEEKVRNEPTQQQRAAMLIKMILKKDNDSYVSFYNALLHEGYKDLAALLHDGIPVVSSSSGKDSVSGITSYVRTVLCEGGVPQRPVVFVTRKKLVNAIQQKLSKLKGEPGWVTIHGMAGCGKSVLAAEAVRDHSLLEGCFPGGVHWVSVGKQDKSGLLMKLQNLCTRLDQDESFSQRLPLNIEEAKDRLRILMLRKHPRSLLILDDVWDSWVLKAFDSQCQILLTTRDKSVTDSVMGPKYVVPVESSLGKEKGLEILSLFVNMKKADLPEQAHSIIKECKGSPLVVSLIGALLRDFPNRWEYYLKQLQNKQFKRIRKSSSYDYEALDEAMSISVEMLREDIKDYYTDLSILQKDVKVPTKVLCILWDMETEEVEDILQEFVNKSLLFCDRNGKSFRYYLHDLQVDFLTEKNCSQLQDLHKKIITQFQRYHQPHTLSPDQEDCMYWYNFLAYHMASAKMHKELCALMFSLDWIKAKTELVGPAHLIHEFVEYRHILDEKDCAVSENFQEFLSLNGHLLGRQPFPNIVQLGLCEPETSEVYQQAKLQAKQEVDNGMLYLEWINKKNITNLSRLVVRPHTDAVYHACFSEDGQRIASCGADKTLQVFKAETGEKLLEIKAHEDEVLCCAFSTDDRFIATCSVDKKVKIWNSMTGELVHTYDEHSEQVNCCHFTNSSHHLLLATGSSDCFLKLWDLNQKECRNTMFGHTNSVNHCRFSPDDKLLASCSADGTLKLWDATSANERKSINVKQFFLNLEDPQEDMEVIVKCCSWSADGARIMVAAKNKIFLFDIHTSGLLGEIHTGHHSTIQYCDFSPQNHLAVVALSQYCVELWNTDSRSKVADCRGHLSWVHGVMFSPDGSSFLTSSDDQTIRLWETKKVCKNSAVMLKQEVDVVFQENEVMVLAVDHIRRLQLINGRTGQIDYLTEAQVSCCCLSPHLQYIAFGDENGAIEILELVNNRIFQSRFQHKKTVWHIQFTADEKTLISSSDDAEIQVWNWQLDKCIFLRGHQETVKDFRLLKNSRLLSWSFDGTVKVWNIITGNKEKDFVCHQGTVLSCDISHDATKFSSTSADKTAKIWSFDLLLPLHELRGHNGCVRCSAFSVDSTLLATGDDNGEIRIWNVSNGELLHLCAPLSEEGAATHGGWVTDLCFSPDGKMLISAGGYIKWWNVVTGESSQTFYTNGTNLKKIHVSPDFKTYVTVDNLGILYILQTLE
UniProt A4D1U4: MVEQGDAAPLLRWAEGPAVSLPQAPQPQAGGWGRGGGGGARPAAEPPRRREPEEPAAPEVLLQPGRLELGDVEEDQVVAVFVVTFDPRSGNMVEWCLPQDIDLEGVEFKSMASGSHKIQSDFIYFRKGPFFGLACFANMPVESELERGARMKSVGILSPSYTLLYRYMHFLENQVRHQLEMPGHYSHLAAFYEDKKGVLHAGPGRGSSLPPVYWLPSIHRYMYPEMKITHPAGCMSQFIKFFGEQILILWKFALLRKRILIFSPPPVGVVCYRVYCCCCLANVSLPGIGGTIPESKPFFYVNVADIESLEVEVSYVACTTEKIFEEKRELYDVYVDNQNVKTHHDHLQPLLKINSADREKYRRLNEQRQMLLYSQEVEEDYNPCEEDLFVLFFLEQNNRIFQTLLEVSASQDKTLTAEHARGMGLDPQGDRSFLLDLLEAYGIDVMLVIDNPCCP
UniProt A6NHG4: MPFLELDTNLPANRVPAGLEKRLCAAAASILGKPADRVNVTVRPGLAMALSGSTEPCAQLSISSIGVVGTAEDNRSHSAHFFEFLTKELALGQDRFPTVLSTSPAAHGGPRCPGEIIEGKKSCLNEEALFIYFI
UniProt P30046: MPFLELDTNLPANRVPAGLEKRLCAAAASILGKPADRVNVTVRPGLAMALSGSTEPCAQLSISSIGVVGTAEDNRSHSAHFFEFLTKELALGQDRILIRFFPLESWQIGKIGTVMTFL
UniProt Q16595: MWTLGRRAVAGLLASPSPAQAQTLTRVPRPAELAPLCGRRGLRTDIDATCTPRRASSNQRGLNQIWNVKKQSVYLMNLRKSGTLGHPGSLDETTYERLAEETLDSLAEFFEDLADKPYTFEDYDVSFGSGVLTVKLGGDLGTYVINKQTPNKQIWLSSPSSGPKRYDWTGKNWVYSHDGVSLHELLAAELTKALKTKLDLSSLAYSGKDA
UniProt A6NHX0: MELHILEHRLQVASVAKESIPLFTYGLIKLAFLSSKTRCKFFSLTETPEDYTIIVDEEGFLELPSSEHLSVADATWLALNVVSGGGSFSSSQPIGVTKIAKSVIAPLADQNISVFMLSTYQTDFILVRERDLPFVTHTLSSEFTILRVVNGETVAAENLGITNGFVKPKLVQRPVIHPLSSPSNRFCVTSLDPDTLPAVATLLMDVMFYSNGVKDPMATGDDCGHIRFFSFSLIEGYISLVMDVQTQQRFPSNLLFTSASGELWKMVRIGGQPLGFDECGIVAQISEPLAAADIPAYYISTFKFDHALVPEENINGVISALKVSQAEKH
UniProt A1L0T0: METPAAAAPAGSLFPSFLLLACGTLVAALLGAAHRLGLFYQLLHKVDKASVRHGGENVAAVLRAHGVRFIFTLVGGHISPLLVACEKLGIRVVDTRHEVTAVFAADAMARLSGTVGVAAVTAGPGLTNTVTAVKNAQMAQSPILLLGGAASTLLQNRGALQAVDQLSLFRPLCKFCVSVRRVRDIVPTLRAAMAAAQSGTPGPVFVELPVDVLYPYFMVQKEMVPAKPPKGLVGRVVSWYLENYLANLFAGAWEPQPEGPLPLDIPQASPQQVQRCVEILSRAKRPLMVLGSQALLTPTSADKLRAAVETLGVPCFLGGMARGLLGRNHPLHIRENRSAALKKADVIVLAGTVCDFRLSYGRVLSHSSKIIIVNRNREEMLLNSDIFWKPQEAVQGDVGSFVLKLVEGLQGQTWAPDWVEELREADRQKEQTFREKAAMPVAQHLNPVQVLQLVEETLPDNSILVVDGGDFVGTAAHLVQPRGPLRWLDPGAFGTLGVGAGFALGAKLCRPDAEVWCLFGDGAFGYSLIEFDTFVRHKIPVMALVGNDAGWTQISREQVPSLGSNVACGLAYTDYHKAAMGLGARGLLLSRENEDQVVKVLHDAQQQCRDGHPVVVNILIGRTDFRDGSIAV
UniProt P55212: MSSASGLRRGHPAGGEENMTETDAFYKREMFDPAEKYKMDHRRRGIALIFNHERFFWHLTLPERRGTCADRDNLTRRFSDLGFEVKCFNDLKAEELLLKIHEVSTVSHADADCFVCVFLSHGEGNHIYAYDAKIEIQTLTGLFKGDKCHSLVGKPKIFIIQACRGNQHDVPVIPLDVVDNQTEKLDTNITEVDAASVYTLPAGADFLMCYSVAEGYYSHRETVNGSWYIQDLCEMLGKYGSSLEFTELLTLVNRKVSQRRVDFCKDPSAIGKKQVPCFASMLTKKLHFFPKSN
UniProt Q9UM13, whole entry: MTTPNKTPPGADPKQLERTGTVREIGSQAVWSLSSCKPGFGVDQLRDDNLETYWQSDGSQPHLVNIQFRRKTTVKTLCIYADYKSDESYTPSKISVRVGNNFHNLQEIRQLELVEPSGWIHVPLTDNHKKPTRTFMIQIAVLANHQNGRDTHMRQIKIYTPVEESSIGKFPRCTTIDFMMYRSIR

Compound: Nc1ncnc2c1ncn2[C@@H]1O[C@H](COP(=O)(O)OP(=O)(O)OP(=O)(O)O)[C@@H](O)[C@H]1O [adenosine triphosphate]
Assay: NP40-soluble protein abundance relative to vehicle (solubility fold change) (ratio); higher = more soluble protein in presence of ATP
In short: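 Across three independent experiments, values are fold changes against the detergent-processed vehicle for each replicate, based on vsn-normalised intensities. The samples were Jurkat crude lysate treated with eight concentrations (0.1 to 10 mM) for 10 min at room temperature and then 3 min at 37 °C. Lysate was solubilised with 0.8% NP40 and benzonase, ultracentrifuged, and the supernatant analysed by TMT-labelled LC-MS/MS.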

Target	NP40-soluble protein abundance (concentration: 1mM)	NP40-soluble protein abundance (concentration: 2mM)	NP40-soluble protein abundance (concentration: 4mM)	NP40-soluble protein abundance (concentration: 6mM)	NP40-soluble protein abundance (concentration: 8mM)	NP40-soluble protein abundance (concentration: 10mM)
D3DQ64 and related entries (UniProt P27144)	1.05 ± 0.1	0.973 ± 0.047	1.07 ± 0.046	1.02 ± 0.048	1.07 ± 0.066	0.992 ± 0.1
B4DDF4 and related entries (UniProt Q99439)	0.927 ± 0.076	0.948 ± 0.048	0.902 ± 0.029	0.982 ± 0.044	0.894 ± 0.011	0.884 ± 0.034
ZNF316 (UniProt A6NFI3)	0.974 ± 0.027	0.98 ± 0.055	0.947 ± 0.032	0.954 ± 0.048	0.969 ± 0.027	0.962 ± 0.034
B7Z1T1 (UniProt O00258)	1.05 ± 0.23	0.965 ± 0.12	0.974 ± 0.072	0.895 ± 0.18	1.01 ± 0.02	1.03 ± 0.042
C9JF66 and related entries (UniProt Q6PIZ9)	0.854 ± 0.11	0.913 ± 0.093	0.881 ± 0.081	0.927 ± 0.021	0.854 ± 0.071	0.855 ± 0.048
B4DY09 and related entries (UniProt Q12905)	1.11 ± 0.081	1.14 ± 0.062	1.19 ± 0.055	1.21 ± 0.022	1.31 ± 0.053	1.34 ± 0.091
A0A0G2JNU3|A6H8Y1 and related entries (UniProt A6H8Y1)	0.983 ± 0.14	1.12 ± 0.05	0.948 ± 0.072	0.976 ± 0.017	0.985 ± 0.093	0.987 ± 0.12
C9J6B1 and related entries (UniProt P11234)	1.01 ± 0.058	0.982 ± 0.018	0.992 ± 0.073	1.02 ± 0.067	0.947 ± 0.066	0.985 ± 0.021
A6NMQ1 and related entries (UniProt P09884)	0.991 ± 0.061	1.01 ± 0.043	0.964 ± 0.03	0.965 ± 0.023	1 ± 0.018	0.966 ± 0.028
UniProt A3KMH1 and related entries	0.998 ± 0.034	0.964 ± 0.011	0.987 ± 0.013	0.958 ± 0.042	1.03 ± 0.015	1.01 ± 0.036
A0A0G2JJ47|A0A0G2JP87|A2ABH1 and related entries (UniProt Q8TD31)	1.01 ± 0.071	1.06 ± 0.064	1.06 ± 0.072	1.1 ± 0.07	0.959 ± 0.14	1.08 ± 0.07
SH3PXD2B (UniProt A1X283)	0.951 ± 0.058	0.963 ± 0.024	0.9739 ± 0.0059	0.989 ± 0.012	0.941 ± 0.03	0.956 ± 0.032
C9JLV4 and related entries (UniProt O14727)	1.05 ± 0.083	1.05 ± 0.05	1.09 ± 0.072	0.986 ± 0.085	1.06 ± 0.051	1.02 ± 0.02
C9JNZ0 and related entries (UniProt Q96IW7)	0.996 ± 0.15	1.02 ± 0.081	0.981 ± 0.086	0.926 ± 0.14	1.04 ± 0.15	1 ± 0.14
UniProt A5PLN9 and related entries	0.964 ± 0.089	0.975 ± 0.056	0.986 ± 0.023	0.901 ± 0.049	0.984 ± 0.056	0.965 ± 0.029
A4D1U4 and related entries (UniProt C9J7X6+A4D1U4)	1.11 ± 0.027	1.046 ± 0.0031	1.15 ± 0.13	1.06 ± 0.095	1.11 ± 0.061	1.07 ± 0.1
A6NFX8 and related entries (UniProt Q9UKK9)	1.04 ± 0.088	1 ± 0.059	0.98 ± 0.052	0.961 ± 0.045	1 ± 0.049	0.973 ± 0.036
B1AQP1 and related entries (UniProt P22415)	0.947 ± 0.035	0.98 ± 0.046	0.937 ± 0.03	0.986 ± 0.029	0.923 ± 0.033	0.917 ± 0.052
C9JNW5 and related entries (UniProt P83731)	0.838 ± 0.044	0.819 ± 0.056	0.77 ± 0.051	0.745 ± 0.08	0.631 ± 0.063	0.758 ± 0.056
A6NJD9 and related entries (UniProt Q16540)	1.01 ± 0.075	0.92 ± 0.12	0.916 ± 0.15	0.833 ± 0.22	0.927 ± 0.22	0.856 ± 0.17
A6NHG4 and related entries (UniProt P30046+B5MC82+A6NHG4)	0.9318 ± 0.0072	1.031 ± 0.0049	0.9352 ± 0.0075	0.961 ± 0.07	0.9531 ± 0.0048	0.99438 ± 6.3e-05
C9JLU1 and related entries (UniProt P52434)	1.08 ± 0.19	0.976 ± 0.14	0.996 ± 0.16	0.94 ± 0.13	1.02 ± 0.099	0.957 ± 0.07
A3KFL2 and related entries (UniProt Q13868)	1.1 ± 0.089	1.07 ± 0.089	1.16 ± 0.059	1.15 ± 0.12	1.25 ± 0.074	1.25 ± 0.11
C9JAX1 and related entries (UniProt Q16595)	0.926 ± 0.091	0.967 ± 0.041	0.953 ± 0.04	0.921 ± 0.059	0.888 ± 0.073	0.862 ± 0.14
UniProt A6NHX0	1.05 ± 0.087	0.9126 ± 0.0082	0.93 ± 0.014	0.9445 ± 0.0071	1.01 ± 0.024	0.922 ± 0.03
B7Z3R9 and related entries (UniProt Q8TE99)	0.942 ± 0.039	1.02 ± 0.012	0.994 ± 0.036	0.975 ± 0.03	0.908 ± 0.012	0.966 ± 0.085
ILVBL (UniProt A1L0T0)	0.944 ± 0.019	0.974 ± 0.044	0.948 ± 0.019	0.911 ± 0.074	0.96 ± 0.031	0.988 ± 0.045
D6RHU3 and related entries (UniProt P55212)	0.998 ± 0.095	0.994 ± 0.11	0.989 ± 0.1	0.936 ± 0.13	1 ± 0.058	0.969 ± 0.074
D6RA92 and related entries (UniProt Q9UM13)	1.13 ± 0.2	1.13 ± 0.043	1.08 ± 0.026	1.08 ± 0.012	1.1 ± 0.071	1.11 ± 0.083
B0YIW6 and related entries (UniProt P48444)	1.02 ± 0.044	0.998 ± 0.025	0.984 ± 0.038	0.952 ± 0.035	0.999 ± 0.025	0.971 ± 0.031

Some values from the entries so far:
For NP40-soluble protein abundance (concentration: 4mM), A6NHG4 and related entries (UniProt P30046+B5MC82+A6NHG4) has the entry 0.9352 ± 0.0075
For NP40-soluble protein abundance (concentration: 1mM), UniProt A6NHX0 has the entry 1.05 ± 0.087
